Reference: PMC8298100
No constants are given. Whether binding was seen depends on the method and setting. In cells and extracts the contact can be indirect. Here binding means that the protein was enriched with, or labelled near, the bait; the list need not be complete. For some assays here: No binding means not detected with the bait. For some assays here: Tags and fused reporters may be left off the sequences shown. One block for each molecule: values may come before it.

By UniProt entry, the sequences of proteins in these tests, tags left out. Where a name states a change or a piece, a line headed by the entry shows the natural chain unless it says otherwise.
UniProt P05556: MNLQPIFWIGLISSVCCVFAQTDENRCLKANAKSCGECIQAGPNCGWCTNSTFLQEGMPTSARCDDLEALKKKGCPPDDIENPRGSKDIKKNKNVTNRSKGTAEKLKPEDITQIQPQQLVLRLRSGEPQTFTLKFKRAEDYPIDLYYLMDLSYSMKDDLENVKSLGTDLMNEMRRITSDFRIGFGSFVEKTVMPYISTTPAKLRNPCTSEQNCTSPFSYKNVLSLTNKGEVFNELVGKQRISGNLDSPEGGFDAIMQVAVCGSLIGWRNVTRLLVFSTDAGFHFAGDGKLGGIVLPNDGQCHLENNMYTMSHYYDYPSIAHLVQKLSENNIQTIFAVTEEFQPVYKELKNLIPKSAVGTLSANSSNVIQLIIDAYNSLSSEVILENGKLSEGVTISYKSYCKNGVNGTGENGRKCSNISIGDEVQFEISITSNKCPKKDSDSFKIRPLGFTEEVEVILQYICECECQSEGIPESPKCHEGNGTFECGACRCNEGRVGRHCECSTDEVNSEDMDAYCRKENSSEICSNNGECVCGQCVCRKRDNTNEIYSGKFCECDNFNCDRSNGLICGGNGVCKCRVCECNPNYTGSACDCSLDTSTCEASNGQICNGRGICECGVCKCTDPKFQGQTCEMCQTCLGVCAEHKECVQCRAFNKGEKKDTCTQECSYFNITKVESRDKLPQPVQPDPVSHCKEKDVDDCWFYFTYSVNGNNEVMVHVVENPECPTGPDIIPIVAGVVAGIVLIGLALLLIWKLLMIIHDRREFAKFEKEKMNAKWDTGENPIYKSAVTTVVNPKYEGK

Columns and labels:
[1] = molecular target: T1, HA-BioID2-TPD54 R159E (human) (UniProt O43399); assay: proximity labelling; BioID2 fused to TPD54 WT or R159E in RPE1 cells, 50 µM biotin for 16 h; RIPA lysate, streptavidin beads, on-bead digestion, mass spectrometry
T1 sequence: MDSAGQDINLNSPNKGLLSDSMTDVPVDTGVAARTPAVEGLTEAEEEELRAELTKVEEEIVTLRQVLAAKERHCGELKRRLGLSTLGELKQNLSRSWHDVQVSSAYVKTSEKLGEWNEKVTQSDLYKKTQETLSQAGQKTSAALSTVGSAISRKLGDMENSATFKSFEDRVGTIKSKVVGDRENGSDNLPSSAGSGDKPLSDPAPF

GFP-TPD54 (human) = GFP-TPD54 (human) (UniProt O43399); assay: affinity purification with mass spectrometry; RPE-1 cells transiently expressing GFP or GFP-TPD54, lysed under nonstringent conditions (10 mM Tris-HCl pH 7.5, 150 mM NaCl, 0.5 mM EDTA, 0.5% NP-40); GFP-Trap beads 1 h; washes with 500 mM NaCl; mass spectrometry
[2] = molecular target: HA-BioID2-TPD54 WT (human) (UniProt O43399); assay: proximity labelling; BioID2 fused to TPD54 WT or R159E in RPE1 cells, 50 µM biotin for 16 h; RIPA lysate, streptavidin beads, on-bead digestion, mass spectrometry

binding [1]: no binding
Molecule: integrin α5 (human (endogenous in RPE-1)) (receptor)

binding (GFP-TPD54 (human)): binds
binding [2]: binds
Molecule: integrin β1 (from UniProt P05556 21-798) (receptor)

binding (GFP-TPD54 (human)): binds
B1: TPD52 (protein, UniProt P55327 1-224)
chain: MDCREMDLYEDYQSPFDFDAGVNKSYLYLSPSGNSSPPGSPTLQKFGLLRTDPVPEEGEDVAATISATETLSEEEQEELRRELAKVEEEIQTLSQVLAAKEKHLAEIKRKLGINSLQELKQNIAKGWQDVTATSAYKKTSETLSQAGQKASAAFSSVGSVITKKLEDVKNSPTFKSFEEKVENLKSKVGGTKPAGGDFGEVLNSAANASATTTEPLPEKTQESL

binding (GFP-TPD54 (human)): binds
B2: TPD53 (protein, UniProt Q16890 1-204)
chain: MEAQAQGLLETEPLQGTDEDAVASADFSSMLSEEEKEELKAELVQLEDEITTLRQVLSAKERHLVEIKQKLGMNLMNELKQNFSKSWHDMQTTTAYKKTHETLSHAGQKATAAFSNVGTAISKKFGDMSYSIRHSISMPAMRNSPTFKSFEERVETTVTSLKTKVGGTNPNGGSFEEVLSSTAHASAQSLAGGSRRTKEEELQC
